In patent US20180311369A1 (WRIGHT STATE UNIVERSITY, published 2018):
Results are given in words; binding and its absence hold for the method and conditions named. Some entries that bind do so weakly or less than the wild type.

Protein sequences, listed by entry. Tags and fused reporters are not part of them. Lines headed by an entry give the natural chain unless they say otherwise; changes in a name come on top.
UniProt Q4L1J4: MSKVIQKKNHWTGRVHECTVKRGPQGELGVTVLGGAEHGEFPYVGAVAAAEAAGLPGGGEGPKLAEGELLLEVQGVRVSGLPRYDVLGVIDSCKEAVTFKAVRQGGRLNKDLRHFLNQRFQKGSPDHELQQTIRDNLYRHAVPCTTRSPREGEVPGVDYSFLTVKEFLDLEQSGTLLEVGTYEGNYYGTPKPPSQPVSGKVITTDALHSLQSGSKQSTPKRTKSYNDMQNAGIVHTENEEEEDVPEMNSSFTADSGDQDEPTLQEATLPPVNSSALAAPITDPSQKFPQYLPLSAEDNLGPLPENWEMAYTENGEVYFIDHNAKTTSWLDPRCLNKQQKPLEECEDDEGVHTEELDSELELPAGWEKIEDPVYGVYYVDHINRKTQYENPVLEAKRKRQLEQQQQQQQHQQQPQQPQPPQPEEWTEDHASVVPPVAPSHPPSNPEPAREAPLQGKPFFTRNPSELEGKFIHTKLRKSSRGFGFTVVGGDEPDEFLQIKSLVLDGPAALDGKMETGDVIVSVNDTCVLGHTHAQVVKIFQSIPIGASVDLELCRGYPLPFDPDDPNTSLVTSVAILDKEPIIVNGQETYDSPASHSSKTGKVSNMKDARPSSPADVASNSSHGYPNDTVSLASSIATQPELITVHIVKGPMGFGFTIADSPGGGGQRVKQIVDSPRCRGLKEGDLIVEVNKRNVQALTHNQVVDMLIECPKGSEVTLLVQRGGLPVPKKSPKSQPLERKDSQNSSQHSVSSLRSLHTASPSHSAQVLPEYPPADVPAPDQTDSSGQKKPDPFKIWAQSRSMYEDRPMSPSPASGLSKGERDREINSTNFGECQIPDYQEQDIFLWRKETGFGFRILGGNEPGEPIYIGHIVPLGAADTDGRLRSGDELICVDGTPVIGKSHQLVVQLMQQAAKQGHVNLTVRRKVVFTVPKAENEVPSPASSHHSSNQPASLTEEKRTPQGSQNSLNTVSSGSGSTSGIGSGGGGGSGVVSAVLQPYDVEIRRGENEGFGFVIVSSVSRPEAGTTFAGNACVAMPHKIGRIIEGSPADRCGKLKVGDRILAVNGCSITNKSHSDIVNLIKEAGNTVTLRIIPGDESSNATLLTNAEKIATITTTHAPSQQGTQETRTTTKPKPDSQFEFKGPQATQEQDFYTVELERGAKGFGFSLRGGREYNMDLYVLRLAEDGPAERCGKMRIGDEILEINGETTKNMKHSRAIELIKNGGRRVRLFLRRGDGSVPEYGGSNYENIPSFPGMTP

Key:
[1] = molecular target: MAGI-1 PDZ3 domain (Rattus norvegicus (Rat)) (UniProt Q4L1J4); assay: ligand binding assay (figure legend)
[2] = molecular target: MAGI-1 PDZ1 domain (Rattus norvegicus (Rat)) (UniProt Q4L1J4); assay: ligand binding assay (figure legend)

| Binder | binding [1] | binding [2] |
| --- | --- | --- |
| GRKKRRQRRRPPQAQSQAGSLV (also called TAT-PDZ3 peptide) [TAT-ESAM] | binds | – |
| GRKKRRQRRRPPQGGKKKETLV (also called TAT-PDZ1 peptide) [TAT-NET1] | – | binds |
| GRKKRRQRRRPPQSRTRRETQL (also called TAT-E6) [TAT-HPV E6] | – | binds |
